The list does not hold the whole screen: it gathers tests that were run many times, whatever their T/C, doses with no T/C, and many T/C values between a quarter and a half above the control. Other doses and runs of a compound stand elsewhere. T/C gives the treated animals as a percentage of the vehicle group. Some entries give survivors of the animals treated and no T/C: the source holds a T/C of zero for them, seemingly a mark for toxic or unscored doses. Some survivor counts are full or nearly so, which does not show that the dose was tolerated: the source hardly ever lists a survival T/C far under the control, and the zero likely stands for such cases as well. Survivors were counted at the toxicity check, usually on the fifth day, unless a day is given; later deaths do not show. Schedule codes are those of the source, read here as Q, the interval in days (D) or hours (H), X, the number of doses. Some doses were run more than once; the results are listed from low to high.

For 24 molecules, survivor count results are on record in PubChem BioAssay AID256 (DTP/NCI, 2004).

This assay has as its system CD2F1 mice, L1210 leukemia ip, survival T/C. The assay can be described thus: NCI In Vivo Anticancer Drug Screen. Data for tumor model L1210 Leukemia (intraperitoneal) in CD2F1 (CDF1) mice. The following applies: higher T/C = longer survival. In a few lines:
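Antitumor effect is scored in animals hosting a serially transplanted tumor. Values compare compound-dosed animals against vehicle-only controls as a simple quotient.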

Where [1] appears, read: T/C endpoint: mean survival time, dose: 200.0 mg/kg/injection, schedule: Q01DX001 (ip), vehicle: saline with Tween-80.
The mark [2] stands for this setting: T/C endpoint: mean survival time, dose: 400.0 mg/kg/injection, schedule: Q04DX002 (ip), vehicle: saline with Tween-80.
The mark [3] stands for this setting: T/C endpoint: mean survival time, dose: 400.0 mg/kg/injection, schedule: Q04DX003 (ip), vehicle: saline with Tween-80.
Setting [4] is: T/C endpoint: mean survival time, dose: 200.0 mg/kg/injection, schedule: Q01DX009 (ip), vehicle: saline with Tween-80.
[5] abbreviates: T/C endpoint: mean survival time, dose: 100.0 mg/kg/injection, schedule: Q04DX003 (ip), vehicle: saline with Tween-80.
[6] abbreviates: T/C endpoint: mean survival time, dose: 200.0 mg/kg/injection, schedule: Q04DX003 (ip), vehicle: saline with Tween-80.
Where [7] appears, read: T/C endpoint: mean survival time, dose: 400.0 mg/kg/injection, schedule: Q01DX001 (ip), vehicle: saline with Tween-80.
[8] abbreviates: T/C endpoint: mean survival time, dose: 400.0 mg/kg/injection, schedule: Q01DX001 (ip), vehicle: saline.

As for `Cn1c(-c2ccccc2)nc2c(N)ncnc21`, the survivor count under setting [1] is 6 of 6.
Turning to `Nc1ccc(-n2nc3ccc4ccccc4c3n2)cc1`, the survivor count was 2 of 3 (T/C endpoint: mean survival time, dose: 100.0 mg/kg/injection, schedule: Q04DX002 (ip), vehicle: saline with Tween-80); 0 of 3 (T/C endpoint: mean survival time, dose: 200.0 mg/kg/injection, schedule: Q04DX002 (ip), vehicle: saline with Tween-80); 0 of 3 under setting [2].
For `CCN(CC)CC(=O)Nc1c(Cl)cccc1Cl`, the survivor count (T/C endpoint: mean survival time, dose: 400.0 mg/kg/injection, schedule: Q01DX009 (ip), vehicle: saline) was 2 of 6.
As to `O=C(Nc1ccc(Cl)c(Cl)c1)Nc1c(Oc2ccc(Cl)c(Cl)c2)ccc(Cl)c1S(=O)(=O)O`, the survivor count runs as follows: (T/C endpoint: mean survival time, dose: 50.0 mg/kg/injection, schedule: Q01DX009 (ip), vehicle: saline) 6 of 6; (T/C endpoint: mean survival time, dose: 100.0 mg/kg/injection, schedule: Q01DX009 (ip), vehicle: saline) 6 of 6; (T/C endpoint: mean survival time, dose: 200.0 mg/kg/injection, schedule: Q01DX009 (ip), vehicle: saline) 4 of 6; under setting [3], 0 of 6.
`CCCCNC(=O)Oc1ccc(C(=O)OCC)cc1`: the survivor count is, setting by setting: under setting [4], 3 of 6; (T/C endpoint: mean survival time, dose: 400.0 mg/kg/injection, schedule: Q01DX009 (ip), vehicle: saline with Tween-80) 2 of 6.
As to `CCc1nc2cc(C)c(C)cc2[nH]1`, the survivor count under setting [5] is recorded as 6 of 6, the survivor count under setting [6] is 0 of 6 and the survivor count under setting [3] was 0 of 6.
`N#CC(=C=N)N=C(F)C(C#N)=C(C#N)C#N`: the survivor count is 0 of 6 (T/C endpoint: mean survival time, dose: 75.0 mg/kg/injection, schedule: Q01DX001 (ip), vehicle: saline); 0 of 6 (T/C endpoint: mean survival time, dose: 150.0 mg/kg/injection, schedule: Q01DX001 (ip), vehicle: saline); 0 of 6 (T/C endpoint: mean survival time, dose: 300.0 mg/kg/injection, schedule: Q01DX001 (ip), vehicle: saline).
In the case of `c1ccc(CC23CN(C4CCCCC4)CC24N(c2ccccc23)C23CN(C5CCCCC5)CC2(Cc2ccccc2)c2ccccc2N43)cc1` (stereo unspecified), the survivor count under setting [1] is reported as 6 of 6 and the survivor count under setting [7] is 6 of 6.
For `O=C1C=CC(=O)C=C1` (tested in a mixture with another compound), the survivor count by setting is: (T/C endpoint: mean survival time, dose: 6.25 mg/kg/injection, schedule: Q04DX003 (ip), vehicle: saline with Tween-80) 6 of 6; (T/C endpoint: mean survival time, dose: 12.5 mg/kg/injection, schedule: Q04DX003 (ip), vehicle: saline with Tween-80) 4 of 6; (T/C endpoint: mean survival time, dose: 25.0 mg/kg/injection, schedule: Q04DX003 (ip), vehicle: saline with Tween-80) 2 of 6; (T/C endpoint: mean survival time, dose: 50.0 mg/kg/injection, schedule: Q04DX003 (ip), vehicle: saline with Tween-80) 0 of 6; under setting [5], 1 of 6.
As for `O=Cc1[nH]c(=S)[nH]c(=O)c1Cc1ccc(Cl)cc1`, the survivor count reads like this: under setting [6], 6 of 6; under setting [3], 5 of 6.
Regarding `Nc1ncnc2c1c(I)cn2C1OC(CO)C(O)C1O` (stereo unspecified), the survivor count (T/C endpoint: mean survival time, dose: 100.0 mg/kg/injection, schedule: Q01DX001 (ip), vehicle: saline) is 0 of 6; the survivor count (T/C endpoint: mean survival time, dose: 200.0 mg/kg/injection, schedule: Q01DX001 (ip), vehicle: saline) was 0 of 6; the survivor count under setting [8] is given as 0 of 6.
As for `O=C(O)c1cc(Br)c(Br)s1`, the survivor count under setting [3] is 0 of 6.
As for `Cc1ccc(C)c(C(C)NC2=NCCO2)c1` (stereo unspecified), the survivor count is on record as 0 of 6 under setting [6] and 0 of 6 under setting [3].
Take `CCCCCCCCCCCCCCCC(=O)N(C(C)CCCN(CC)CC)C(C)CCCN(CC)CC` (stereo unspecified): the survivor count (T/C endpoint: mean survival time, dose: 50.0 mg/kg/injection, schedule: Q01DX009 (ip), vehicle: Klucel (hydroxypropylcellulose) (HPC)) is recorded as 5 of 6 and the survivor count (T/C endpoint: mean survival time, dose: 100.0 mg/kg/injection, schedule: Q01DX009 (ip), vehicle: Klucel (hydroxypropylcellulose) (HPC)) is reported as 0 of 6.
`COc1ccc(OC)c(C2(O)C=C(Cl)C(=O)C=C2Cl)c1` (stereo unspecified): the survivor count under setting [7] was 1 of 3.
Regarding `CSc1nc(NC2OC(CO)C(O)C(O)C2O)c(Br)c(=O)n1C` (stereo unspecified), where the note is “T/C endpoint: median survival time, dose: 200.0 mg/kg/injection, schedule: Q01DX005 (ip), vehicle: saline with Tween-80”, the survivor count is given as 2 of 6.
For `Cc1ccc(S(=O)(=O)Nc2ccccc2)c(CC(O)(c2ccccc2)c2ccccc2)c1`, the survivor count under setting [3] is listed as 6 of 6.
For `CN(C)C(SCc1ccccc1)=[N+](C)C`, the survivor count under setting [2] is on record as 0 of 3.
Consider `NC(=S)NN=C1CCCC1`, for which the survivor count by setting is: under setting [5], 0 of 6; under setting [6], 0 of 6; under setting [3], 0 of 6.
As for `CC1CC(O)C(=O)C(O[C@@H]2C[C@@H]3CC[C@@H]4[C@H](CC[C@]5(C)C(C6=CC(=O)OC6)CC[C@]45O)[C@@]3(C=O)C[C@H]2O)O1` (stereo partly specified), the survivor count (T/C endpoint: mean survival time, dose: 25.0 mg/kg/injection, schedule: Q01DX001 (ip), vehicle: saline with Tween-80) was 0 of 6; the survivor count (T/C endpoint: mean survival time, dose: 100.0 mg/kg/injection, schedule: Q01DX001 (ip), vehicle: saline with Tween-80) is recorded as 0 of 6; the survivor count under setting [1] is 0 of 6; the survivor count under setting [7] is 0 of 6.
On to `CC(Cc1ccccc1)NC=O` (stereo unspecified), for which the survivor count under setting [4] is listed as 1 of 3.
With `C=CCCCCC(=O)c1ccccc1`, the survivor count under setting [2] is listed as 1 of 3.
For `CCCCNc1ccc2nnc(C)n2n1`, the survivor count was 2 of 6 (T/C endpoint: median survival time, dose: 200.0 mg/kg/injection, schedule: Q01DX005 (ip), vehicle: DMSO); 0 of 6 and 1 of 6 (T/C endpoint: median survival time, dose: 400.0 mg/kg/injection, schedule: Q01DX005 (ip), vehicle: DMSO); 0 of 6 (T/C endpoint: median survival time, dose: 800.0 mg/kg/injection, schedule: Q01DX005 (ip), vehicle: DMSO).
As for `COC(=O)c1cc(-c2ccc(Cl)cc2)nc2cc(Cl)c(OC)cc12`, under setting [8], the survivor count was 6 of 6.
